Drawing on paper PMC5741637, this text covers binding for one molecule.

No constants are given. Whether binding was seen depends on the method and setting. A result given as binding can be weak or reduced; the word gives no strength.

This assay addresses COP1 RING domain (aa 1-104) in pGBK (bait) (Arabidopsis thaliana). Nature of the assay: two-hybrid; Matchmaker GAL4 system, yeast AH109; COP1 full and partial cDNAs in pGBK as baits, FKF1 full and partial cDNAs in pGAD as prey; yeast cell growth and beta-galactosidase activity (CPRG).

B1: FKF1 KELCH domain (aa 283-618) in pGAD (prey) (domain or fragment, UniProt Q9C9W9 283-618)
chain: ELTTLEAVCWRKFTVGGIVQPSRCNFSACAVGNRLVLFGGEGVNMQPLDDTFVLNLDAECPEWQRVRVTSSPPGRWGHTLSCLNGSWLVVFGGCGRQGLLNDVFVLDLDAKHPTWKEVAGGTPPLPRSWHSSCTIEGSKLVVSGGCTDAGVLLSDTFLLDLTTDKPTWKEIPTSWAPPSRLGHSLSVFGRTKILMFGGLANSGHLKLRSGEAYTIDLEDEEPRWRELECSAFPGVVVPPPRLDHVAVSMPCGRVIIFGGSIAGLHSPSQLFLIDPAEEKPSWRILNVPGKPPKLAWGHSTCVVGGTRVLVLGGHTGEEWILNELHELCLASRQDSD
For the molecule B1, the binding entry was “binds”.
